The experiment relates to P388 leukemia ip, CD2F1 mice, survival T/C. Description: NCI In Vivo Anticancer Drug Screen. Data for tumor model P388 Leukemia (intraperitoneal) in CD2F1 (CDF1) mice. The note with it: T/C endpoint: median survival time, schedule: Q01DX009 (ip), vehicle: saline + alcohol, higher T/C = longer survival.

SMILES strings stand for the structures. The list does not hold the whole screen: it covers a few groups of compounds. Other doses and runs of a compound may be missing. T/C: endpoint of the treated group in % of that of the vehicle group. For survival time, the PubChem record calls one and a half times the control and up active, and a quarter to a half above the control has no call in these data; cut-offs in other NCI protocols can differ. Schedules are NCI's codes, taken here to give the interval after Q, in days (D) or hours (H), and the number of doses after X. Some T/C values are marked as having no survivor count here; that says nothing about deaths at the dose.

With `CC1CCOC(=O)/C=C/C=C/C(=O)OC2CC3OC4C(Br)C(C)(O)CCC4(COC(=O)C1O)C2(C)C31CO1` (configuration not stated), the T/C runs as follows: (dose: 0.15 mg/kg/injection) 105 % of control [survivor count not shown]; (dose: 0.31 mg/kg/injection) 93 % of control [survivor count not shown]; (dose: 0.62 mg/kg/injection) 97 % of control [survivor count not shown]; (dose: 1.25 mg/kg/injection) 121 % of control [survivor count not shown]; (dose: 2.5 mg/kg/injection) 112 % of control [survivor count not shown]; (dose: 5.0 mg/kg/injection) 123 % of control [survivor count not shown]. The T/C (dose: 10.0 mg/kg/injection) was 133 % of control [survivor count not shown].
